Test results taken from PMC7717600, “Novel [(N-alkyl-3-indolylmethylene)hydrazono]oxindoles arrest cell cycle and induce cell apoptosis by inhibiting CDK2 and Bcl-2: synthesis, biological evaluation and in silico studies” (Journal of Enzyme Inhibition and Medicinal Chemistry, 2020).

Test system: panel of 59 human cancer cell lines
Test: NCI screening, panel and subpanel summaries
Details: cell lines with GI % higher than 10% at 10 μM

SMILES: CCCn1cc(C=NN=C2C(=O)Nc3ccc(C)cc32)c2ccccc21 [Compound 8a]
- Sensitive cell lines no.: 58
